Experimental data: PMC10018365, “Cryo-EM structure of the fully assembled Elongator complex” (Nucleic Acids Research, 2023)
These are yes or no findings as the source states them, for the method shown. For part of these data: Binding seen in cells or lysates may run through a third protein. For part of these data: Where a sequence is shown, tags or fusion partners need not be part of it.

Protein sequences, listed by entry. Tags and fused reporters are not part of them. Lines headed by an entry give the natural chain unless they say otherwise; changes in a name come on top.
UniProt P42935: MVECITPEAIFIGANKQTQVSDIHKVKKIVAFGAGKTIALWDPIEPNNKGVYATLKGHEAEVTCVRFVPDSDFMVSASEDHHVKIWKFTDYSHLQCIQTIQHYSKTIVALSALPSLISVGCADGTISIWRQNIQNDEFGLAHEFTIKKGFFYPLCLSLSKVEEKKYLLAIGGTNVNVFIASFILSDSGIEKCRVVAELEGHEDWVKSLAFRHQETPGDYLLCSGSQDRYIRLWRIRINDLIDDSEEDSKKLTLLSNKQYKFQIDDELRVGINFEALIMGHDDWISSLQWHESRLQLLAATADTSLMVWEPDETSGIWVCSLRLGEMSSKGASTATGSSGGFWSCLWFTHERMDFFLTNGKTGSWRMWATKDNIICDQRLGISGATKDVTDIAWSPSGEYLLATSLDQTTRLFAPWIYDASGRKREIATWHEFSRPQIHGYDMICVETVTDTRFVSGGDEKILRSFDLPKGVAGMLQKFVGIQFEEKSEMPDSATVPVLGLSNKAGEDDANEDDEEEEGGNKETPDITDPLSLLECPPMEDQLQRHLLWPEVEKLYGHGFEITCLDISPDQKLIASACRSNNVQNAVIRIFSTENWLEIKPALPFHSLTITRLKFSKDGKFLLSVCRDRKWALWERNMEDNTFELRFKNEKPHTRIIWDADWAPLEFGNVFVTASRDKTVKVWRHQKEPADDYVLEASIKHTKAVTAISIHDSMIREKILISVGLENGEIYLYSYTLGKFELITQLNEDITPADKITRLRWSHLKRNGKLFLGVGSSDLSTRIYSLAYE
UniProt Q02908: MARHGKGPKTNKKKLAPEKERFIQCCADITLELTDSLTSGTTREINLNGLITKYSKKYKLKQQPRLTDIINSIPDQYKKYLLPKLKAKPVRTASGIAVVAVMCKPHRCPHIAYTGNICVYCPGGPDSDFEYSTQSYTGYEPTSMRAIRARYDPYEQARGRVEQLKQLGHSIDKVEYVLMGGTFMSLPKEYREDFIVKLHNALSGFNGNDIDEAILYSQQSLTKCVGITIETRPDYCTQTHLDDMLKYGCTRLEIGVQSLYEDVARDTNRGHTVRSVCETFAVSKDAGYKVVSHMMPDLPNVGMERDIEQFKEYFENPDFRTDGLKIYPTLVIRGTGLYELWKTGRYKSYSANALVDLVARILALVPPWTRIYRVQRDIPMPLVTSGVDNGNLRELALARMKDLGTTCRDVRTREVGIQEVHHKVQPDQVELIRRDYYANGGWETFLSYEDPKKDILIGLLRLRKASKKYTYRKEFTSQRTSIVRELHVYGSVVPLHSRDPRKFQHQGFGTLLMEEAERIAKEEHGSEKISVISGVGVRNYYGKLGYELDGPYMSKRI
UniProt Q02884: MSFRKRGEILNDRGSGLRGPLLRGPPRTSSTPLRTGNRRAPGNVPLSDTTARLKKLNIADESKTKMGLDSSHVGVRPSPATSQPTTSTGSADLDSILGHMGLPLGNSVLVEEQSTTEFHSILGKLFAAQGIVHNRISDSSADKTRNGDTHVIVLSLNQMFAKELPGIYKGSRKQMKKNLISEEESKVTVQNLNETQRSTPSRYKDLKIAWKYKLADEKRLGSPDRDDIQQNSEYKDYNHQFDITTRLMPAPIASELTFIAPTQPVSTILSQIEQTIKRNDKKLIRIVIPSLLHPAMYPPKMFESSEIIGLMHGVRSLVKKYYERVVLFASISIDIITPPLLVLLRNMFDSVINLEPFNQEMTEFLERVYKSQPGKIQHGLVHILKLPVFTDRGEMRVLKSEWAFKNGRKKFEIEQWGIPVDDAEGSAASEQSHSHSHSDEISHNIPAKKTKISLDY
UniProt Q04868: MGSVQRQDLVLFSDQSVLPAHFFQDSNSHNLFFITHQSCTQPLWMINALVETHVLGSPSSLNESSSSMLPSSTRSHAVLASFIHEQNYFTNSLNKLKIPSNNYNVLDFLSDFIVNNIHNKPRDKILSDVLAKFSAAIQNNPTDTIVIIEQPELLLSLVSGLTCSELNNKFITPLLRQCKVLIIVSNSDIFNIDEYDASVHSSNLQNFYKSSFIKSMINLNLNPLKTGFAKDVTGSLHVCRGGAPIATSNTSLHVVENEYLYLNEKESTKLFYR
UniProt Q00955: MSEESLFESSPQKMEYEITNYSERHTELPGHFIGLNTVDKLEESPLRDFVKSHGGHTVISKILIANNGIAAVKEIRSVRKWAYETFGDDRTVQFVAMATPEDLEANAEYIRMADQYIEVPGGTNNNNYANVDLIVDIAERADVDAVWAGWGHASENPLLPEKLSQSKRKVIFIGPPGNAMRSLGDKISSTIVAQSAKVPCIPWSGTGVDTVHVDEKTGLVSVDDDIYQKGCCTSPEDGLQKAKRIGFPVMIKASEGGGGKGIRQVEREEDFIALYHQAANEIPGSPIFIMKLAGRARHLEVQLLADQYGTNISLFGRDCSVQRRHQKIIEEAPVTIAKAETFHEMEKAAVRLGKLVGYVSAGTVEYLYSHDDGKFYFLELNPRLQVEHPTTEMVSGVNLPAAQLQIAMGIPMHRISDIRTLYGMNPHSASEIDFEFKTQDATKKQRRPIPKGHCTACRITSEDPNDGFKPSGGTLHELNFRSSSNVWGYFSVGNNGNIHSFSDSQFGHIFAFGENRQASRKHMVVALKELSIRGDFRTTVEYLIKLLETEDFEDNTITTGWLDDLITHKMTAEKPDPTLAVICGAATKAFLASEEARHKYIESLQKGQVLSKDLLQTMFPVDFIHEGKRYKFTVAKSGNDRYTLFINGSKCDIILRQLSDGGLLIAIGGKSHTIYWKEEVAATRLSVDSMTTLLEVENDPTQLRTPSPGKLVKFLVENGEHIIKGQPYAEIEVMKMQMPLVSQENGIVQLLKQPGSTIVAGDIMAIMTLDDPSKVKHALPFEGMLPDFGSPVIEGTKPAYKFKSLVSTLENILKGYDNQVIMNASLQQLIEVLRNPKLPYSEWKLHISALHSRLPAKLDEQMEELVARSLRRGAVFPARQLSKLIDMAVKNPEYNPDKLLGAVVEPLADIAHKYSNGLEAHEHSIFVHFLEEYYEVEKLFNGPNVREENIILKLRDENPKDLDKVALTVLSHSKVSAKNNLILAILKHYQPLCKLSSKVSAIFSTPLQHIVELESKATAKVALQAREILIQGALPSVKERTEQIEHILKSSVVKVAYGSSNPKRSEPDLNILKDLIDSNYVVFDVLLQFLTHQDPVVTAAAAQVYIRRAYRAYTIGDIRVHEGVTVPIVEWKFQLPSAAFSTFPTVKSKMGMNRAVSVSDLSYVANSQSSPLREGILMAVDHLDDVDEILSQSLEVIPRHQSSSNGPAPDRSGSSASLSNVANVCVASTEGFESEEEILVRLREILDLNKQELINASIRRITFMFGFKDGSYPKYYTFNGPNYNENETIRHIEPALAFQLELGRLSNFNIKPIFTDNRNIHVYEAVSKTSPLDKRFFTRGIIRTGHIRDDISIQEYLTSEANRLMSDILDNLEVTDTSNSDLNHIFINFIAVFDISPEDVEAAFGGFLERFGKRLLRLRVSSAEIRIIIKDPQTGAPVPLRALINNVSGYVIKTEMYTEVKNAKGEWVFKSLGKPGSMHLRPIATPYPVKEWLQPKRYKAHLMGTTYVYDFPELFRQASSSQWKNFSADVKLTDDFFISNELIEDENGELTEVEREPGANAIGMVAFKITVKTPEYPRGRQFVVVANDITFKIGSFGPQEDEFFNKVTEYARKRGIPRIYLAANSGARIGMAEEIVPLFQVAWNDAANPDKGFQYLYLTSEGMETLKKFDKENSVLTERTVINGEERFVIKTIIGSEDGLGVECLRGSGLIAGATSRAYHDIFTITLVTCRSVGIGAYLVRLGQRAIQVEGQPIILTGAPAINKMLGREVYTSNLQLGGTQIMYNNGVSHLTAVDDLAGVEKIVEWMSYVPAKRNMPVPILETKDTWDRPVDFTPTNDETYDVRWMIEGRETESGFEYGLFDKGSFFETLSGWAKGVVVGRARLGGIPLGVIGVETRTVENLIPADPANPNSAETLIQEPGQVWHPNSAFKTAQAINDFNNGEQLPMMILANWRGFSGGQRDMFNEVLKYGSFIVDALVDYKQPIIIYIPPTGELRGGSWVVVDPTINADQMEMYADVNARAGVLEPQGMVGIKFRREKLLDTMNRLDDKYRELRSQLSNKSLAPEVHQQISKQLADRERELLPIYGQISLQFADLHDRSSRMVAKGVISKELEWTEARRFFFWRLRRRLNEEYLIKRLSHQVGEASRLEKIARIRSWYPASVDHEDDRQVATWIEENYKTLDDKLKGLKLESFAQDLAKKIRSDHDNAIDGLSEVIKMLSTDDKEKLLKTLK

What was measured:
[1] = molecular target: T1, Elp5-(FLAG)3 (S. cerevisiae (endogenous, tagged)) (UniProt P38874); assay: co-IP; yeast strain with endogenous Elp1 (c-myc), Elp5 (FLAG) and Acc1 (GFP); 8 mg lysate with antibody-coupled Dynabeads or anti-FLAG M2 magnetic beads overnight, washes in B60 buffer, Western blot
T1 sequence: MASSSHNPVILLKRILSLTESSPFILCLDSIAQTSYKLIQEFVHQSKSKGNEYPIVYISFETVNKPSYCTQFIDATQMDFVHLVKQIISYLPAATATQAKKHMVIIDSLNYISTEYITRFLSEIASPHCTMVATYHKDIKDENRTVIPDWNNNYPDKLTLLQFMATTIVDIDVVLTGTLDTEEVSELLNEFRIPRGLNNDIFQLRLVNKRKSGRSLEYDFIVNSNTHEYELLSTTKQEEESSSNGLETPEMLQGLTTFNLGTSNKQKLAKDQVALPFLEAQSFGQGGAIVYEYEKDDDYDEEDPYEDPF

[2] = molecular target: T2, Elp1-(c-myc)3 (S. cerevisiae (endogenous, tagged)) (UniProt Q06706); assay: as above
T2 sequence: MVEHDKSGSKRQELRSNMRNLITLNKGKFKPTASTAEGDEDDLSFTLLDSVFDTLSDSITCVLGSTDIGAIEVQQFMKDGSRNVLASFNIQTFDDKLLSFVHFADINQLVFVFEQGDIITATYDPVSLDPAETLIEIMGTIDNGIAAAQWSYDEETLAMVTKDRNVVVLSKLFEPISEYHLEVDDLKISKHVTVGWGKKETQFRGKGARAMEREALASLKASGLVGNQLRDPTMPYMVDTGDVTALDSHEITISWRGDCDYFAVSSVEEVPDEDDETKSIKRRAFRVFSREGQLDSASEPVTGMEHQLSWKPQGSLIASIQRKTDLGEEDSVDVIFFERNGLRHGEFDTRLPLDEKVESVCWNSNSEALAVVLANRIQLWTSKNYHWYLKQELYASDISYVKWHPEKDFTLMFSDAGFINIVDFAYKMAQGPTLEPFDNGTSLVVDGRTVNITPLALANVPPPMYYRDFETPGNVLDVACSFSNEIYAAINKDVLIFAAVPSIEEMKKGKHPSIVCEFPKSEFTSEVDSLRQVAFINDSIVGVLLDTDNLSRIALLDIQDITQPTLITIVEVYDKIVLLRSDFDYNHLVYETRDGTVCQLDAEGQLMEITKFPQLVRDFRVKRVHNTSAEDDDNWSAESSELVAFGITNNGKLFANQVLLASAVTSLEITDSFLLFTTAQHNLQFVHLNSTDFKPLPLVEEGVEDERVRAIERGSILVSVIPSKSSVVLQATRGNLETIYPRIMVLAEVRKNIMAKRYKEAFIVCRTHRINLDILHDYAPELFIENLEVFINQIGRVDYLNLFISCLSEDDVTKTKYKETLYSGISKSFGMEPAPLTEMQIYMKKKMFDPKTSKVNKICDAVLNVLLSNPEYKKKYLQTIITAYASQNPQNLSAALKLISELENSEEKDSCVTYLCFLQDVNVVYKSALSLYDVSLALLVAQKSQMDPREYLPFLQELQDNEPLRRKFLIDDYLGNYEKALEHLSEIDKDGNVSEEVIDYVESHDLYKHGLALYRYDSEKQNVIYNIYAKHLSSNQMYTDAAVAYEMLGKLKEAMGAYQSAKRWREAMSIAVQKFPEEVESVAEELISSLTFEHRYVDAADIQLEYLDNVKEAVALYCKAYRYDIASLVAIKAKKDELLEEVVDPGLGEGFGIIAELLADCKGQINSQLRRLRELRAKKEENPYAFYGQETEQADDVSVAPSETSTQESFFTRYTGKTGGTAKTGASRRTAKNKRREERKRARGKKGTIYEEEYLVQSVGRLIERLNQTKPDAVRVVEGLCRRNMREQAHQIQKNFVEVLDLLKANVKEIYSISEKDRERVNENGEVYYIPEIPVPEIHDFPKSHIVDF

[3] = molecular target: Saccharomyces cerevisiae Elongator complex, fully assembled (Elp1-Elp6) (Saccharomyces cerevisiae) (UniProt Q06706+P42935+Q02908+Q02884+P38874+Q04868); assay: cross-linking; purified ScElongator (2.22 μM) photo-crosslinked with sulfo-SDA (1:500 and 1:1000), UV 365 nm, LC-MS/MS, 3% FDR on residue pairs; both purified

| binding [1] | binding [2] | binding [3] | Substance |
| --- | --- | --- | --- |
| no binding | no binding | – | Acc1 (GFP) (from UniProt Q00955 1-2233) (enzyme) |
| – | – | no binding | Acetyl-CoA carboxylase 1 (from UniProt Q00955 1-2233) (enzyme) |
